One molecule from US20160333110A1 can be followed below.

In this experiment the target is T1, hmTROP-2-B chimeric protein (human; mouse), Q8BGV3.
T1 chain: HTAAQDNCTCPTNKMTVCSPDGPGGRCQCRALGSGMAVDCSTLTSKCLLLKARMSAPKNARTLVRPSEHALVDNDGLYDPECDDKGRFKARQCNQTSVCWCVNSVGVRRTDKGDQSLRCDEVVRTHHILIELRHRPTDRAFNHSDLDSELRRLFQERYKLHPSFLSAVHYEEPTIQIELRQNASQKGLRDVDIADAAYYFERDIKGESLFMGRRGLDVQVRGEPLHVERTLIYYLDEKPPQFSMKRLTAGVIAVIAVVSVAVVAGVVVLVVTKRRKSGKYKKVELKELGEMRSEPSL
Put plainly: flow cytometry (dot plot FL1-H against FL2-H) on HEK293 cells transiently expressing hmTROP-2-B. The following applies: remark: other sources report otherwise.

Results are given in words; binding and its absence hold for the method and conditions named. Some binding calls cover weakened binding; strength is not graded here.

B1: anti-hTROP-2 monoclonal antibody clone K5-116-2-1 (antibody, mouse IgG2a, V domains shown)
VH: QVQLQQPGAELVRPGASVKLSCKASGYTFTSYWITWVKQRPGQGLEWIGNIYPSDSYTNYNQKFRDKATLTVDKSSSTAYMQLSSPTSEDSAVYYCSALFDYWGQGTTLTVSS
VL: DILLTQSPAILSVSPGERVSFSCRASQSIGTSIHWYQQRTNGSPRLLIKYASESISGIPSRFSGSGSGTDFILSINSVESEDIADYYCQQSNSWPFTFGSGTKLEIK
Consider B1, for which the binding entry is reported as “binds”.
